# No constants are given. Whether binding was seen depends on the method and setting. Some results given as binding are weak or reduced against the parent protein; the word gives no strength.
# Amino acid sequences for entries named in this document (tags omitted). A change or cut given only in a name is not applied to a line headed by its entry.
# UniProt P09693: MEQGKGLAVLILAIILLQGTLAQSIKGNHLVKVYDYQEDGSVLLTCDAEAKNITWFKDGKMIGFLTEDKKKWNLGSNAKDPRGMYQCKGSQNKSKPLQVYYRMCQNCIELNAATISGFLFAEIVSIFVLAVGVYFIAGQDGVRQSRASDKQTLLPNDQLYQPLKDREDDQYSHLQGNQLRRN
# UniProt P07766: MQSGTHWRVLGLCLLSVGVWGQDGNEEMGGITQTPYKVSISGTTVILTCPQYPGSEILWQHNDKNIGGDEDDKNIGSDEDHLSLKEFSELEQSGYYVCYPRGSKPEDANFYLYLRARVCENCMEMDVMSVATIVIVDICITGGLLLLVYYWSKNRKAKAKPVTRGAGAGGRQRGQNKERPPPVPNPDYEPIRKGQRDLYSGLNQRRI
# B1: PRO746 (MATCH) (protein)
# chain 1: DIQMTQSPSSLSASVGDRVTITCQASENIYSFLAWYQQKPGKAPKLLIYSASKLAAGVPSRFSGSGSGTDFTLTISSLQPEDFATYYCQQTNRYSNPDIYNVFGTGTKVTVLGGGGGSGGGGSGGGGSGGGGSEVQLVESGGGLVQPGGSLRLSCAASGIDFNSNYYMCWVRQAPGKGLEWIGCIYVGSHVNTYYANWAKGRFTISRDNSKNTVYLQMNSLRAEDTAVYYCATSGSSVLYFKFWGQGTLVTVSSGGGGSGGGGSDIQMTQSPSSLSASVGDRVTITCQSSQSVFSNNYLAWFQQKPGQSPKRLIYSASTLASGVPSRFSGSGSGTDFTLTISSLQPEDFATYYCLGSYACSSADCYVFGCGTKVTVLGEPEPEPEPEPEPEPDIQMTQSPSSLSASVGDRVTITCQSSESVYSNNQLSWYQQKPGQPPKLLIYDASDLASGVPSRFSGSGSGTDFTLTISSLQPEDFATYYCAGGFSSSSDTAFGGGTKLTVLG
# chain 2: DIQMTQSPSSLSASVGDRVTITCQASENIYSFLAWYQQKPGKAPKLLIYSASKLAAGVPSRFSGSGSGTDFTLTISSLQPEDFATYYCQQTNRYSNPDIYNVFGTGTKVTVLGGGGGSGGGGSGGGGSGGGGSEVQLVESGGGLVQPGGSLRLSCAASGIDFNSNYYMCWVRQAPGKGLEWIGCIYVGSHVNTYYANWAKGRFTISRDNSKNTVYLQMNSLRAEDTAVYYCATSGSSVLYFKFWGQGTLVTVSSGGGGSGGGGSEVQLVESGGGLVQPGGSLRLSCAASGFSLSSNAMGWVRQAPGKGLEYIGIISVGGFTYYASWAKGRFTISRDNSKNTVYLQMNSLRAEDTATYFCARDRHGGDSSGAFYLWGQGTLVTVSSKPKPKPKPKPKPKPEVQLVESGGGLVQPGGSLRLSCAASGFSLSSYDMSWVRQAPGKCLAWIGASYASGPTYYASWAKGRFTISRDNSKNTVYLQMNSLRAEDTATYFCARGGWTGTSHSNIWGQGTLVTVSS
# B2: PRO733 (protein)
# chain 1: DIQMTQSPSSLSASVGDRVTITCQASENIYSFLAWYQQKPGKAPKLLIYSASKLAAGVPSRFSGSGSGTDFTLTISSLQPEDFATYYCQQTNRYSNPDIYNVFGTGTKVTVLGGGGGSGGGGSGGGGSGGGGSEVQLVESGGGLVQPGGSLRLSCAASGIDFNSNYYMCWVRQAPGKGLEWIGCIYVGSHVNTYYANWAKGRFTISRDNSKNTVYLQMNSLRAEDTAVYYCATSGSSVLYFKFWGQGTLVTVSSGGGGSGGGGSDIQMTQSPSSLSASVGDRVTITCQSSESVYNNKRLSWYQQKPGKAPKLLIYTASSLASGVPSRFSGSGSGTDFTLTISSLQPEDFATYYCQGEFTCSNADCFTFGCGTKVTVLGSGGGGSGGGGSDIQMTQSPSSLSASVGDRVTITCQSSESVYSNNQLSWYQQKPGQPPKLLIYDASDLASGVPSRFSGSGSGTDFTLTISSLQPEDFATYYCAGGFSSSSDTAFGGGTKLTVLG
# chain 2: DIQMTQSPSSLSASVGDRVTITCQASENIYSFLAWYQQKPGKAPKLLIYSASKLAAGVPSRFSGSGSGTDFTLTISSLQPEDFATYYCQQTNRYSNPDIYNVFGTGTKVTVLGGGGGSGGGGSGGGGSGGGGSEVQLVESGGGLVQPGGSLRLSCAASGIDFNSNYYMCWVRQAPGKGLEWIGCIYVGSHVNTYYANWAKGRFTISRDNSKNTVYLQMNSLRAEDTAVYYCATSGSSVLYFKFWGQGTLVTVSSGGGGSGGGGSEVQLVESGGGLVQPGGSLRLSCAASGFPLSSYAMIWVRQAPGKCLEWIGMILRAGNIYYASWVKGRFTISRDNSKNTVYLQMNSLRAEDTAVYYCARRHYNREGYPIGIGDLWGQGTLVTVSSSGGGGSGGGGSEVQLVESGGGLVQPGGSLRLSCAASGFSLSSNAMGWVRQAPGKGLEYIGIISVGGFTYYASWAKGRFTISRDNSKNTVYLQMNSLRAEDTATYFCARDRHGGDSSGAFYLWGQGTLVTVSS
# B3: PRO737 (protein)
# chain 1: DIQMTQSPSSLSASVGDRVTITCQASENIYSFLAWYQQKPGKAPKLLIYSASKLAAGVPSRFSGSGSGTDFTLTISSLQPEDFATYYCQQTNRYSNPDIYNVFGTGTKVTVLGGGGGSGGGGSGGGGSGGGGSEVQLVESGGGLVQPGGSLRLSCAASGIDFNSNYYMCWVRQAPGKGLEWIGCIYVGSHVNTYYANWAKGRFTISRDNSKNTVYLQMNSLRAEDTAVYYCATSGSSVLYFKFWGQGTLVTVSSGGGGSGGGGSDIQMTQSPSSLSASVGDRVTITCQSSESVYNNKRLSWYQQKPGKAPKLLIYTASSLASGVPSRFSGSGSGTDFTLTISSLQPEDFATYYCQGEFTCSNADCFTFGCGTKVTVLGGGGGSGGGGSGGGGSDIQMTQSPSSLSASVGDRVTITCQSSESVYSNNQLSWYQQKPGQPPKLLIYDASDLASGVPSRFSGSGSGTDFTLTISSLQPEDFATYYCAGGFSSSSDTAFGGGTKLTVLG
# chain 2: DIQMTQSPSSLSASVGDRVTITCQASENIYSFLAWYQQKPGKAPKLLIYSASKLAAGVPSRFSGSGSGTDFTLTISSLQPEDFATYYCQQTNRYSNPDIYNVFGTGTKVTVLGGGGGSGGGGSGGGGSGGGGSEVQLVESGGGLVQPGGSLRLSCAASGIDFNSNYYMCWVRQAPGKGLEWIGCIYVGSHVNTYYANWAKGRFTISRDNSKNTVYLQMNSLRAEDTAVYYCATSGSSVLYFKFWGQGTLVTVSSGGGGSGGGGSEVQLVESGGGLVQPGGSLRLSCAASGFPLSSYAMIWVRQAPGKCLEWIGMILRAGNIYYASWVKGRFTISRDNSKNTVYLQMNSLRAEDTAVYYCARRHYNREGYPIGIGDLWGQGTLVTVSSGGGGSGGGGSGGGGSEVQLVESGGGLVQPGGSLRLSCAASGFSLSSNAMGWVRQAPGKGLEYIGIISVGGFTYYASWAKGRFTISRDNSKNTVYLQMNSLRAEDTATYFCARDRHGGDSSGAFYLWGQGTLVTVSS
# B4: PRO734 (protein)
# chain 1: DIQMTQSPSSLSASVGDRVTITCQASENIYSFLAWYQQKPGKAPKLLIYSASKLAAGVPSRFSGSGSGTDFTLTISSLQPEDFATYYCQQTNRYSNPDIYNVFGTGTKVTVLGGGGGSGGGGSGGGGSGGGGSEVQLVESGGGLVQPGGSLRLSCAASGIDFNSNYYMCWVRQAPGKGLEWIGCIYVGSHVNTYYANWAKGRFTISRDNSKNTVYLQMNSLRAEDTAVYYCATSGSSVLYFKFWGQGTLVTVSSGGGGSGGGGSDIQMTQSPSSLSASVGDRVTITCQSSQSVFSNNYLAWFQQKPGQSPKRLIYSASTLASGVPSRFSGSGSGTDFTLTISSLQPEDFATYYCLGSYACSSADCYVFGCGTKVTVLGSGGGGSGGGGSDIQMTQSPSSLSASVGDRVTITCQSSESVYSNNQLSWYQQKPGQPPKLLIYDASDLASGVPSRFSGSGSGTDFTLTISSLQPEDFATYYCAGGFSSSSDTAFGGGTKLTVLG
# chain 2: DIQMTQSPSSLSASVGDRVTITCQASENIYSFLAWYQQKPGKAPKLLIYSASKLAAGVPSRFSGSGSGTDFTLTISSLQPEDFATYYCQQTNRYSNPDIYNVFGTGTKVTVLGGGGGSGGGGSGGGGSGGGGSEVQLVESGGGLVQPGGSLRLSCAASGIDFNSNYYMCWVRQAPGKGLEWIGCIYVGSHVNTYYANWAKGRFTISRDNSKNTVYLQMNSLRAEDTAVYYCATSGSSVLYFKFWGQGTLVTVSSGGGGSGGGGSEVQLVESGGGLVQPGGSLRLSCAASGFSLSSNAMGWVRQAPGKGLEYIGIISVGGFTYYASWAKGRFTISRDNSKNTVYLQMNSLRAEDTATYFCARDRHGGDSSGAFYLWGQGTLVTVSSSGGGGSGGGGSEVQLVESGGGLVQPGGSLRLSCAASGFSLSSYDMSWVRQAPGKCLAWIGASYASGPTYYASWAKGRFTISRDNSKNTVYLQMNSLRAEDTATYFCARGGWTGTSHSNIWGQGTLVTVSS
# B5: PRO736 (protein)
# chain 1: DIQMTQSPSSLSASVGDRVTITCQASENIYSFLAWYQQKPGKAPKLLIYSASKLAAGVPSRFSGSGSGTDFTLTISSLQPEDFATYYCQQTNRYSNPDIYNVFGTGTKVTVLGGGGGSGGGGSGGGGSGGGGSEVQLVESGGGLVQPGGSLRLSCAASGIDFNSNYYMCWVRQAPGKGLEWIGCIYVGSHVNTYYANWAKGRFTISRDNSKNTVYLQMNSLRAEDTAVYYCATSGSSVLYFKFWGQGTLVTVSSGGGGSGGGGSDIQMTQSPSSLSASVGDRVTITCQSSQSVFSNNYLAWFQQKPGQSPKRLIYSASTLASGVPSRFSGSGSGTDFTLTISSLQPEDFATYYCLGSYACSSADCYVFGCGTKVTVLGGGGGSGGGGSGGGGSDIQMTQSPSSLSASVGDRVTITCQSSESVYSNNQLSWYQQKPGQPPKLLIYDASDLASGVPSRFSGSGSGTDFTLTISSLQPEDFATYYCAGGFSSSSDTAFGGGTKLTVLG
# chain 2: DIQMTQSPSSLSASVGDRVTITCQASENIYSFLAWYQQKPGKAPKLLIYSASKLAAGVPSRFSGSGSGTDFTLTISSLQPEDFATYYCQQTNRYSNPDIYNVFGTGTKVTVLGGGGGSGGGGSGGGGSGGGGSEVQLVESGGGLVQPGGSLRLSCAASGIDFNSNYYMCWVRQAPGKGLEWIGCIYVGSHVNTYYANWAKGRFTISRDNSKNTVYLQMNSLRAEDTAVYYCATSGSSVLYFKFWGQGTLVTVSSGGGGSGGGGSEVQLVESGGGLVQPGGSLRLSCAASGFSLSSYDMSWVRQAPGKCLAWIGASYASGPTYYASWAKGRFTISRDNSKNTVYLQMNSLRAEDTATYFCARGGWTGTSHSNIWGQGTLVTVSSGGGGSGGGGSGGGGSEVQLVESGGGLVQPGGSLRLSCAASGFSLSSNAMGWVRQAPGKGLEYIGIISVGGFTYYASWAKGRFTISRDNSKNTVYLQMNSLRAEDTATYFCARDRHGGDSSGAFYLWGQGTLVTVSS
# B6: PRO738 (protein)
# chain 1: B5 chain 1
# chain 2: DIQMTQSPSSLSASVGDRVTITCQASENIYSFLAWYQQKPGKAPKLLIYSASKLAAGVPSRFSGSGSGTDFTLTISSLQPEDFATYYCQQTNRYSNPDIYNVFGTGTKVTVLGGGGGSGGGGSGGGGSGGGGSEVQLVESGGGLVQPGGSLRLSCAASGIDFNSNYYMCWVRQAPGKGLEWIGCIYVGSHVNTYYANWAKGRFTISRDNSKNTVYLQMNSLRAEDTAVYYCATSGSSVLYFKFWGQGTLVTVSSGGGGSGGGGSEVQLVESGGGLVQPGGSLRLSCAASGFSLSSNAMGWVRQAPGKGLEYIGIISVGGFTYYASWAKGRFTISRDNSKNTVYLQMNSLRAEDTATYFCARDRHGGDSSGAFYLWGQGTLVTVSSGGGGSGGGGSGGGGSEVQLVESGGGLVQPGGSLRLSCAASGFSLSSYDMSWVRQAPGKCLAWIGASYASGPTYYASWAKGRFTISRDNSKNTVYLQMNSLRAEDTATYFCARGGWTGTSHSNIWGQGTLVTVSS
# Target: human CD3 gamma-epsilon single-chain (human) (UniProt P09693+P07766)
# Assay: SPR
row,binding,Binder
1,binds,B1
2,binds,B2
3,binds,B3
4,binds,B4
5,binds,B5
6,binds,B6
